Results are given in words; binding and its absence hold for the method and conditions named. In cells and extracts the contact can be indirect. Some results given as binding are weak or reduced against the parent protein; the word gives no strength.
Biological target: α5 (WT)-TBHA (UniProt P28066)
Test: pull-down; High Capacity Streptavidin Agarose captures the biotinylated TBHA-tagged bait from lysates of stably expressing 293T cells (TBSN buffer: 50 mM Tris pH 7.5, 125 mM NaCl, 0.5% NP-40, 1 mM ATP, 5 mM MgCl2), 4 °C; Western blot; cells with or without nocodazole (100 ng/mL, 16 h)

Amino acid sequences for entries named in this document (tags omitted). A change or cut given only in a name is not applied to a line headed by its entry.
UniProt P28066: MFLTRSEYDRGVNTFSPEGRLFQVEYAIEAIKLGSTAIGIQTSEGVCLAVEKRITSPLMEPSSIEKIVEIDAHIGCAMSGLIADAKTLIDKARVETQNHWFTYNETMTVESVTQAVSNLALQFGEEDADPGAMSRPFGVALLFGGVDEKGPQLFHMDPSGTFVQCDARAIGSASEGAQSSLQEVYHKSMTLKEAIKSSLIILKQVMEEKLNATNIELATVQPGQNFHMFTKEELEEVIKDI

Row | Substance | binding
1 | HA-PLK1 (from UniProt P53350 1-603) (enzyme) | binds
2 | endogenous α5 (from UniProt P28066-1 1-241) | binds
